Data source: PubChem BioAssay AID1671195 (Yale University, 2021)
The whole screen tested about 22,000 reagents; shown is a random part of them. About 1,510 of them (6.9%) were called active. 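Active includes knockdowns raising or lowering LDL uptake; positive z-scores mean more uptake, negative mean less.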

Test: 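Knockdowns that increase or decrease uptake of fluorescent LDL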 (primary screen)
System: human Huh7 hepatoma cells
Knock-down reagent: siRNA pool against human genes, 18 nM
Timing: about 2 to 2.5 days of knockdown, then 8 h LDL uptake
Treatment: DiI-labelled LDL at 30 µg/ml for 8 h, in lipoprotein-deficient serum medium
Read-out: 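Per-cell DiI-LDL intensity by automated imaging; well means scaled to the plate median and given as a robust z-score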
Scale: robust z-score: higher = more LDL uptake after knockdown
Rule for the call: 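a gene counts as active if at least two replicate z-scores exceed ±2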

| target | robust z-score, replicate 1 | robust z-score, replicate 2 | robust z-score, replicate 3 | call |
| --- | --- | --- | --- | --- |
| FNBP1 | 3.51 | 2.42 | 4.72 | active |
| LOC442174 (retired record) | -0.0106 | 0.0489 | 0.246 | inactive |
| LOC253289 (retired record) | -0.273 | 0.247 | 0.246 | inactive |
| BMX | -0.0942 | -0.744 | 1.31 | inactive |
| EVPL | -0.653 | -0.524 | -1.84 | inactive |
| VPS26B | 0.0934 | 1.01 | 0.727 | inactive |
| MEGF8 | -1.56 | -1.16 | -0.768 | inactive |
| ASB13 | 0.139 | 0.354 | 0.103 | inactive |
| MYH8 | 0.825 | 0.0697 | 0.435 | inactive |
| IL17F | -0.336 | -0.115 | 0.062 | inactive |
| TMEM35A | 1.18 | 0.764 | 0.476 | inactive |
| FBXO5 | -0.158 | 0.774 | -0.432 | inactive |
| FBLN5 | 2.19 | 0.842 | 3.27 | active |
| LOC440943 (retired record) | 0.453 | 0.477 | 1.1 | inactive |
| CLIP4 | 1.01 | 0.469 | 1.32 | inactive |
| JPH2 | -0.105 | 0.281 | -0.852 | inactive |
| CPED1 | 0.346 | 0.121 | 0.538 | inactive |
| ATIC | 0.619 | 1.44 | 0.623 | inactive |
| WHAMM | 2.34 | 1.24 | 2.35 | active |
| SLC26A7 | -0.557 | -0.929 | -0.382 | inactive |
| PDGFRB | 0.327 | 0.899 | 1.47 | inactive |
| RBBP5 | 0.251 | 0.39 | 0.288 | inactive |
| FAM66C | 0.909 | -0.05 | -0.0999 | inactive |
| RGS3 | 3.88 | 2.36 | 2.52 | active |
| SYT13 | -1.04 | -1.05 | -0.876 | inactive |
| DUSP2 | 0.111 | 0.745 | -0.122 | inactive |
| PLIN3 | 1.78 | 0.0681 | 0.498 | inactive |
| FBXO16 | 0.197 | 0.0596 | 0.192 | inactive |
| TSLIG1 | 0.494 | 0.235 | 0.444 | inactive |
| NAAA | 1.08 | 1.02 | 1.12 | inactive |
| EDN2 | -0.726 | 0.667 | -0.137 | inactive |
| SPATA46 | 1.07 | 0.769 | 0.711 | inactive |
| ZNF841 | 0.96 | 1.01 | 1.48 | inactive |
| LOC441552 (retired record) | -1.81 | -1.77 | -1.5 | inactive |
| PCDHGA11 | 1.49 | 1.71 | 1.44 | inactive |
| PSTPIP2 | -1.79 | -0.947 | -2.32 | inactive |
| HGH1 | -0.765 | 1.46 | 1.22 | inactive |
| TBC1D14 | 0.0454 | 0.682 | 1.44 | inactive |
| TMTC2 | 1.74 | 2.8 | 2.02 | active |
| PRICKLE1 | 0.596 | 0.313 | -0.758 | inactive |
| MAP3K10 | 0.0941 | 1.38 | 0.00292 | inactive |
| SMS | 1.08 | 1.96 | 1.4 | inactive |
| ANXA2 | 1.11 | 0.858 | 0.281 | inactive |
| RTTN | 1.12 | 1.48 | 0.891 | inactive |
| PIBF1 | -0.308 | 1.17 | -0.776 | inactive |
| IQCC | 0.889 | 1.01 | 0.127 | inactive |
| IDH3B | 1.06 | 0.744 | 1.35 | inactive |
| LOC147941 (retired record) | -0.802 | -0.0153 | -0.471 | inactive |
| SAR1AP3 | -1.29 | -1.32 | -1.17 | inactive |
| FCRL4 | 1.35 | 0.701 | 0.652 | inactive |
| LOC388713 (retired record) | 1.04 | 0.429 | 0.445 | inactive |
| ABCB4 | -0.202 | 0.884 | -0.0434 | inactive |
| LINC00928 | 1.38 | 0.606 | 0.207 | inactive |
| DEF6 | -0.813 | -2.42 | -0.48 | inactive |
| LOC440309 (retired record) | -0.0755 | 1.62 | -0.292 | inactive |
| MBD4 | 1.3 | 2.45 | 1.59 | inactive |
| GOLGA8VP | 0.614 | 0.0647 | 0.183 | inactive |
| LOC387943 (retired record) | 0.614 | 0.439 | 0.812 | inactive |
| LOC441020 (retired record) | -0.634 | -0.657 | -1.02 | inactive |
| GAS7 | -1.6 | -1.47 | -1.45 | inactive |
| SYCP2L | 1.04 | 1.06 | 1.45 | inactive |
| SERHL | 1.36 | 1.18 | 1 | inactive |
| TMEM54 | -0.733 | 0.557 | -0.211 | inactive |
| RAD52 | 0.485 | -0.404 | -0.38 | inactive |
| FERRY3 | -0.285 | -1.21 | 0.311 | inactive |
| LOC143158 (retired record) | -1.34 | -2.36 | -0.931 | inactive |
| GPC2 | -0.465 | -0.387 | -0.398 | inactive |
| CDK11A | -0.139 | -0.432 | 0.619 | inactive |

Reformatted: 11 of the entries above.
FAM66C — robust z-score, replicate 1 = 0.909; robust z-score, replicate 2 = -0.05; robust z-score, replicate 3 = -0.0999; call = inactive
RGS3 — robust z-score, replicate 1 = 3.88; robust z-score, replicate 2 = 2.36; robust z-score, replicate 3 = 2.52; call = active
SYT13 — robust z-score, replicate 1 = -1.04; robust z-score, replicate 2 = -1.05; robust z-score, replicate 3 = -0.876; call = inactive
DUSP2 — robust z-score, replicate 1 = 0.111; robust z-score, replicate 2 = 0.745; robust z-score, replicate 3 = -0.122; call = inactive
PLIN3 — robust z-score, replicate 1 = 1.78; robust z-score, replicate 2 = 0.0681; robust z-score, replicate 3 = 0.498; call = inactive
FBXO16 — robust z-score, replicate 1 = 0.197; robust z-score, replicate 2 = 0.0596; robust z-score, replicate 3 = 0.192; call = inactive
TSLIG1 — robust z-score, replicate 1 = 0.494; robust z-score, replicate 2 = 0.235; robust z-score, replicate 3 = 0.444; call = inactive
NAAA — robust z-score, replicate 1 = 1.08; robust z-score, replicate 2 = 1.02; robust z-score, replicate 3 = 1.12; call = inactive
EDN2 — robust z-score, replicate 1 = -0.726; robust z-score, replicate 2 = 0.667; robust z-score, replicate 3 = -0.137; call = inactive
SPATA46 — robust z-score, replicate 1 = 1.07; robust z-score, replicate 2 = 0.769; robust z-score, replicate 3 = 0.711; call = inactive
ZNF841 — robust z-score, replicate 1 = 0.96; robust z-score, replicate 2 = 1.01; robust z-score, replicate 3 = 1.48; call = inactive
